Assay results: the supplement of paper PMC6411743
± gives the standard deviation of the averaged measurements. The entries are a selection whose mix differs from that of the whole data set. Small differences around the control level are noise.

By UniProt entry, the sequences of proteins in these tests, tags left out. Where a name states a change or a piece, a line headed by the entry shows the natural chain unless it says otherwise.
UniProt Q99808: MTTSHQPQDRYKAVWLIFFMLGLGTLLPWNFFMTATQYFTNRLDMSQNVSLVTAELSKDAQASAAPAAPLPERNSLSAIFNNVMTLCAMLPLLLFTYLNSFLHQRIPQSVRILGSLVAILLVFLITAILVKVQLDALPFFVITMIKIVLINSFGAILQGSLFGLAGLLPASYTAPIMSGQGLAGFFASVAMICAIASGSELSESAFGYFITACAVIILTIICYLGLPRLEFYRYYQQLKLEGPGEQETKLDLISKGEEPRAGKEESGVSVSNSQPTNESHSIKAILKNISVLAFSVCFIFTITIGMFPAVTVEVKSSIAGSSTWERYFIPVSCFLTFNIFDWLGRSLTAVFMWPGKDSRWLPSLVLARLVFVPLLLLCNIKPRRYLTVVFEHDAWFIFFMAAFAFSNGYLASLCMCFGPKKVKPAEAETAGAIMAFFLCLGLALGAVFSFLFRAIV
UniProt Q9BT22: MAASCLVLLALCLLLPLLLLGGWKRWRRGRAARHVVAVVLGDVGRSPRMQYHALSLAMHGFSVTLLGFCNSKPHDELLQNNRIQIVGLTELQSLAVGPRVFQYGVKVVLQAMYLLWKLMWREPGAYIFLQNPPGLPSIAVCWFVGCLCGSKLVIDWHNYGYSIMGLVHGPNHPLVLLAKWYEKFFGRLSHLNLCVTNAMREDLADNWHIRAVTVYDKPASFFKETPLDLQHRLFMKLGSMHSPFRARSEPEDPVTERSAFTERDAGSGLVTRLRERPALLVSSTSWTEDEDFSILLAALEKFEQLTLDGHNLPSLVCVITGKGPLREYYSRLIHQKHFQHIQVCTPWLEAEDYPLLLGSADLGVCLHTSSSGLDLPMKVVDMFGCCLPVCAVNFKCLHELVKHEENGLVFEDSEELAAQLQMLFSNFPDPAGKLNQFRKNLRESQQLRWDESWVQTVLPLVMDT
UniProt Q96RP9: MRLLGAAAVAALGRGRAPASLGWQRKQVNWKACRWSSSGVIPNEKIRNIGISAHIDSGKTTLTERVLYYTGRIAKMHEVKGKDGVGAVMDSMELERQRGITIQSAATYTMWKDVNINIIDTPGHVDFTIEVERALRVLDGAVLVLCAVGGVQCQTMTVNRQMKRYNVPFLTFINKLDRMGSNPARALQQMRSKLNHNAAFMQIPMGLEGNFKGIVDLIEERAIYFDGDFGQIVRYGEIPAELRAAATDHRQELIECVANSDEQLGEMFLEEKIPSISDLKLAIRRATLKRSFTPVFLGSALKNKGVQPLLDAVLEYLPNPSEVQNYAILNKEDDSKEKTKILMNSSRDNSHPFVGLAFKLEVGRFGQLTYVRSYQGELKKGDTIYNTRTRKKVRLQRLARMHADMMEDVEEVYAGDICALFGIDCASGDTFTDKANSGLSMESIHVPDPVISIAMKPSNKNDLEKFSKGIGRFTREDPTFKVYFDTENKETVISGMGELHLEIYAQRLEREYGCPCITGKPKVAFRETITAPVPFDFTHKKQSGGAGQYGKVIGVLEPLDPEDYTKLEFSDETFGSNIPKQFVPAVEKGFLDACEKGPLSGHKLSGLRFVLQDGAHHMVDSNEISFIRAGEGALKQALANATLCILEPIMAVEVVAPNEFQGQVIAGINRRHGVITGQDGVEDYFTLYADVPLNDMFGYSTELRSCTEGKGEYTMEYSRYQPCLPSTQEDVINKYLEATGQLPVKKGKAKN
UniProt Q9BWJ5: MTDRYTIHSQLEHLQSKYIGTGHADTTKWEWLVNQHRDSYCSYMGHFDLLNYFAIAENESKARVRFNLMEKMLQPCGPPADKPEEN
UniProt Q9BTL3: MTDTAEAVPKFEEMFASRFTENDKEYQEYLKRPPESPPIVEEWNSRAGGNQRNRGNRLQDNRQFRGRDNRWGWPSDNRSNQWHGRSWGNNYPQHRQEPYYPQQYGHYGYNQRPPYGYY
UniProt Q9BRS2: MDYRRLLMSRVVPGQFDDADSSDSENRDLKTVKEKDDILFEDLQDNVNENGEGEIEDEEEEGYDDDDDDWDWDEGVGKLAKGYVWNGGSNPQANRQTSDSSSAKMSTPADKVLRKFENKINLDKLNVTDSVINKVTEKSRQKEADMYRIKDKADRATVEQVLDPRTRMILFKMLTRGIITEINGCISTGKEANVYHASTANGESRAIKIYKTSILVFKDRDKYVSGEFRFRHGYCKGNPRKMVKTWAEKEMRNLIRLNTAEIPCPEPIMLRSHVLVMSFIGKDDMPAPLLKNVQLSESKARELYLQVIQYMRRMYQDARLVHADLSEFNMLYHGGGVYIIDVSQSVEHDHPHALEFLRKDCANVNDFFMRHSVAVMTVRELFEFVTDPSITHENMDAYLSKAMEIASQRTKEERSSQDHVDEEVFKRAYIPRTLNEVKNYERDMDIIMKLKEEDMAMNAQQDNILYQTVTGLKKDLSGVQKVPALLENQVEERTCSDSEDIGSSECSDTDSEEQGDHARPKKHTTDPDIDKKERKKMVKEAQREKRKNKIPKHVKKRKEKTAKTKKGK
UniProt Q99767, whole entry: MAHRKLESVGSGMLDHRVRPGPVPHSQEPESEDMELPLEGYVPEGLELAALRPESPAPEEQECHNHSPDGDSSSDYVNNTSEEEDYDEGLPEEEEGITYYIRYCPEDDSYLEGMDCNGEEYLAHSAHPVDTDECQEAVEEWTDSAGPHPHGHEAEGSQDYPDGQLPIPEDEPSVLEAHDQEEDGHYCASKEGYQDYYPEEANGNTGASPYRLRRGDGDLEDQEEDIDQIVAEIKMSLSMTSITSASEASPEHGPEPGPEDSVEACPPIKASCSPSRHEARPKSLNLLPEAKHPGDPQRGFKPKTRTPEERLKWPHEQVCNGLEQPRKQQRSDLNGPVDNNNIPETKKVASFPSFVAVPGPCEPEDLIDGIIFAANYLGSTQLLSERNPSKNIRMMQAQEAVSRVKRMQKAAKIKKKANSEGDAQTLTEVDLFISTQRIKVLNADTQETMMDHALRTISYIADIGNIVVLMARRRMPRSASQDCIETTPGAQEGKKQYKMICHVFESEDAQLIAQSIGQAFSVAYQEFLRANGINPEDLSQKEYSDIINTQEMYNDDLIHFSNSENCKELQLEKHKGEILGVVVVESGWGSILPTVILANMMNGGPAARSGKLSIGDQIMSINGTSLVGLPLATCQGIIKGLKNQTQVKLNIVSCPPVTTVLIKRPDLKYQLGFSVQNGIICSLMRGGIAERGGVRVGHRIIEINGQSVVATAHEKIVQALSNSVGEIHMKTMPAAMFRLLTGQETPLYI
UniProt Q9BRZ2: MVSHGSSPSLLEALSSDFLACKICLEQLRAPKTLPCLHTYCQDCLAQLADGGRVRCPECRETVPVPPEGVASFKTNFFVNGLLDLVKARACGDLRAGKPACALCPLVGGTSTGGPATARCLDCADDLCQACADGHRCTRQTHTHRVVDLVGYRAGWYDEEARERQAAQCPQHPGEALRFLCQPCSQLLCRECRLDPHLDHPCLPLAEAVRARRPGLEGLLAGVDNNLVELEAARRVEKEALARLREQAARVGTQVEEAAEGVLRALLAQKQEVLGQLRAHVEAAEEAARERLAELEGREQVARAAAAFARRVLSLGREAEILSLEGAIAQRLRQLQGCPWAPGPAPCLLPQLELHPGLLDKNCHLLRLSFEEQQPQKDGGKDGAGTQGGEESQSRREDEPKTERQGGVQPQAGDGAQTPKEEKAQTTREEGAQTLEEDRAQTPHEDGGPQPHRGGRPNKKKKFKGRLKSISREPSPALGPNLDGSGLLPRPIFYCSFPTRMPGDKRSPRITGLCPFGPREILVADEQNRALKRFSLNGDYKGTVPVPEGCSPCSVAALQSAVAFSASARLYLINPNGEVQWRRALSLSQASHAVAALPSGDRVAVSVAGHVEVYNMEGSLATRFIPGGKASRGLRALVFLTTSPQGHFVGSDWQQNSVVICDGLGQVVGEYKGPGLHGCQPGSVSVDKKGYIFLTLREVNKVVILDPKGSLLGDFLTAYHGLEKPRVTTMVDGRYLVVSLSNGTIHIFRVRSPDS
UniProt Q99549: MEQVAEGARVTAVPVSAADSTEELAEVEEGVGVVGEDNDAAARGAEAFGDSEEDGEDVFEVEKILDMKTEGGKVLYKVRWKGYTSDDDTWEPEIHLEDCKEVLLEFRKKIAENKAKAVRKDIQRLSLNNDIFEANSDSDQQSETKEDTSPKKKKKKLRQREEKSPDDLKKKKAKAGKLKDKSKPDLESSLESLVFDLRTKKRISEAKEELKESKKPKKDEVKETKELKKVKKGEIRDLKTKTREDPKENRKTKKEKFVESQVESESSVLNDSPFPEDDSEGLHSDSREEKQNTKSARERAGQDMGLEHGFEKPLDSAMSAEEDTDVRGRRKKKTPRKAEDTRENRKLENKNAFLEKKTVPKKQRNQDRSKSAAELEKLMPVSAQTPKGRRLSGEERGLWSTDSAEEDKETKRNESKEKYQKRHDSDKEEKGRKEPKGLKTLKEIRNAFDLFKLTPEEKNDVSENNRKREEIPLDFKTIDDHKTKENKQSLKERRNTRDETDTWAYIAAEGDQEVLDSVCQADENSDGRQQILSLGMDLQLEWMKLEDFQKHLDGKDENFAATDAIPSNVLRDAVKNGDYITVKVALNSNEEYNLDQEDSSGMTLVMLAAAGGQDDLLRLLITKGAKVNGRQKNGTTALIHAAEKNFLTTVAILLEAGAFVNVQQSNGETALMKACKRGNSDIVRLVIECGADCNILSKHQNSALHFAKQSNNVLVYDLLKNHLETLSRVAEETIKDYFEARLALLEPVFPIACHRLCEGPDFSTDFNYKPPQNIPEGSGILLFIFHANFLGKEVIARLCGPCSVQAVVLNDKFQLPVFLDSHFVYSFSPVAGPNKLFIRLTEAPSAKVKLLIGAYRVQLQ
UniProt Q9BT23: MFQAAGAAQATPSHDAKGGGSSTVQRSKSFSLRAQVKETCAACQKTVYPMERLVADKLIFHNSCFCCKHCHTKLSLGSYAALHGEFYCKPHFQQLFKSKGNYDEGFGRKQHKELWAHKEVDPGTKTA
UniProt Q9BU02: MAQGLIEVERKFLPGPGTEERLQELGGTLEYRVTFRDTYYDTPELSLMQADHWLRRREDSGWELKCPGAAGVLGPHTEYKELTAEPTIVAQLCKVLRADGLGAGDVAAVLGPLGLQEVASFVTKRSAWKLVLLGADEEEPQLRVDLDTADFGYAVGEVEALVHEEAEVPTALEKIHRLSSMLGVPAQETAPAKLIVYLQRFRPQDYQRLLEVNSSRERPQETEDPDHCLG
UniProt Q9BVC3, whole entry: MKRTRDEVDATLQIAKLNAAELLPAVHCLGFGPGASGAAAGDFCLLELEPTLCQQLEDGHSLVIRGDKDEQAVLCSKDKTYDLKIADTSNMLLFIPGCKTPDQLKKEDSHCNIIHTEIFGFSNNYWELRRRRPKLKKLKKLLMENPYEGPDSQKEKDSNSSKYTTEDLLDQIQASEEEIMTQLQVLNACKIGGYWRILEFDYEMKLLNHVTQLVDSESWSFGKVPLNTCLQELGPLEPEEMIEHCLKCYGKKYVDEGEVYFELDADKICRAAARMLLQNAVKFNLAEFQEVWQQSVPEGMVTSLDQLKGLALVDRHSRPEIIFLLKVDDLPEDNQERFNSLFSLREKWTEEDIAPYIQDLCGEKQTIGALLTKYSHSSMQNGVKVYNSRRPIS
UniProt Q99538: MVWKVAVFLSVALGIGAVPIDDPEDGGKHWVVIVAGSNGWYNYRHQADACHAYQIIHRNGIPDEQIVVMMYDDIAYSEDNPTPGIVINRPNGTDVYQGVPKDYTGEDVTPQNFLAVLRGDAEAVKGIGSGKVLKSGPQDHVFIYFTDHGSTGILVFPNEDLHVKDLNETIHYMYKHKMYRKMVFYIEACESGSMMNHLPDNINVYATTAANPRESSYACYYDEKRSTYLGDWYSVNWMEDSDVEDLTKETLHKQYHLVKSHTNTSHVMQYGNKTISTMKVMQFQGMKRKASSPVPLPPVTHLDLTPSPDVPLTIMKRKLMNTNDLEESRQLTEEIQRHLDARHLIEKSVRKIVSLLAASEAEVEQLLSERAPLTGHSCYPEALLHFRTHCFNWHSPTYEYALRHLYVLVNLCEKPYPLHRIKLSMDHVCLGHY
UniProt Q9BW71: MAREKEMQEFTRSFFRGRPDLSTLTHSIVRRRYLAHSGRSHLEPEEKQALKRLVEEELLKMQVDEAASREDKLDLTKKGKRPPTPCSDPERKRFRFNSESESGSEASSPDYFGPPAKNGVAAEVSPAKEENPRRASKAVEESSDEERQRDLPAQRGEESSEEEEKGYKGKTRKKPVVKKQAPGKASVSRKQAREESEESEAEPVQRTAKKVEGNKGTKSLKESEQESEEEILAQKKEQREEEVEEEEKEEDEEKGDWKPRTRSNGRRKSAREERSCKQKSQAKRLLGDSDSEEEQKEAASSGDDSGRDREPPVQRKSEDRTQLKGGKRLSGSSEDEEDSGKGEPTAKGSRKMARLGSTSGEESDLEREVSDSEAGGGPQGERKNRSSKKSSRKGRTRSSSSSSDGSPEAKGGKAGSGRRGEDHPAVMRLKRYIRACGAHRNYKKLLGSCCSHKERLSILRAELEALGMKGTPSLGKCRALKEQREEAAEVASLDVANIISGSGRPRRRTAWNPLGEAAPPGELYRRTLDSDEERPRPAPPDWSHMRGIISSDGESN

Compound: Nc1ncnc2c1ncn2[C@@H]1O[C@H](COP(=O)(O)OP(=O)(O)NP(=O)(O)O)[C@@H](O)[C@H]1O [adenylyl imidodiphosphate]
Assay: NP40-soluble protein abundance relative to vehicle (solubility fold change) (ratio); higher = more soluble protein in presence of AMP-PNP
How it was run: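 In three independent experiments, Jurkat crude lysate made by Dounce homogenisation was treated for 10 min at room temperature and then 3 min at 37 °C with eight concentrations ranging from 0.1 to 10 mM. It was then solubilised with 0.8% NP40 plus benzonase for 60 min at 4 °C and ultracentrifuged. The supernatant was TMT-labelled for LC-MS/MS, and each value is the fold change against the detergent-processed vehicle for the same replicate, using vsn-normalised intensities.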

Target	NP40-soluble protein abundance (concentration: 0.1mM)	NP40-soluble protein abundance (concentration: 0.5mM)
UniProt Q9BVC5 and related entries	0.933 ± 0.036	0.903 ± 0.024
UniProt Q99808 and related entries	1 ± 0.07	0.962 ± 0.076
UniProt Q96RL7 and related entries	1.02 ± 0.044	0.987 ± 0.088
ACBD6 (UniProt Q9BR61)	0.987 ± 0.033	0.991 ± 0.052
UniProt Q9BTT6	1.01 ± 0.022	0.99451 ± 0.00076
UniProt Q9BUL5 and related entries	0.9896 ± 0.0041	1.01 ± 0.057
ALG1 (UniProt Q9BT22)	1.02 ± 0.052	0.946 ± 0.046
UniProt Q9BPY3 and related entries	1.04 ± 0.058	1.002 ± 0.0066
UniProt Q96RP9 and related entries	0.9869 ± 0.0078	0.984 ± 0.03
SF3B5 (UniProt Q9BWJ5)	0.98 ± 0.025	0.993 ± 0.067
MED18 (UniProt Q9BUE0)	0.981 ± 0.057	0.973 ± 0.064
KATNAL1 (UniProt Q9BW62)	1 ± 0.061	0.978 ± 0.018
UniProt Q99728 and related entries	1.01 ± 0.046	0.993 ± 0.032
UniProt Q9BUJ2 and related entries	1.03 ± 0.026	1.02 ± 0.049
UniProt Q9BTL3	1.01 ± 0.053	0.972 ± 0.022
UniProt Q99766	0.973 ± 0.0055	0.989 ± 0.021
UniProt Q9BQG0 and related entries	1.05 ± 0.02	1.02 ± 0.029
FUNDC2 (UniProt Q9BWH2)	0.937 ± 0.061	1.04 ± 0.14
RIOK1 (UniProt Q9BRS2)	0.928 ± 0.029	0.9213 ± 0.0048
MECR (UniProt Q9BV79)	1.27 ± 0.087	1.05 ± 0.051
TP53RK (UniProt Q96S44)	0.976 ± 0.056	0.992 ± 0.028

Exported field by field: entries from further up.
UniProt Q99728 and related entries
  NP40-soluble protein abundance (concentration: 0.1mM): 1.01 ± 0.046; NP40-soluble protein abundance (concentration: 0.5mM): 0.993 ± 0.032
UniProt Q9BUJ2 and related entries
  NP40-soluble protein abundance (concentration: 0.1mM): 1.03 ± 0.026; NP40-soluble protein abundance (concentration: 0.5mM): 1.02 ± 0.049
UniProt Q9BTL3
  NP40-soluble protein abundance (concentration: 0.1mM): 1.01 ± 0.053; NP40-soluble protein abundance (concentration: 0.5mM): 0.972 ± 0.022
UniProt Q99766
  NP40-soluble protein abundance (concentration: 0.1mM): 0.973 ± 0.0055; NP40-soluble protein abundance (concentration: 0.5mM): 0.989 ± 0.021

Following part:

Target	NP40-soluble protein abundance (concentration: 0.1mM)	NP40-soluble protein abundance (concentration: 0.5mM)
UniProt Q96SD1 and related entries	0.963 ± 0.011	1.01 ± 0.042
UniProt Q9BRP8 and related entries	0.982 ± 0.034	1.04 ± 0.049
PARD6B (UniProt Q9BYG5)	1.03 ± 0.015	1 ± 0.014
UniProt Q9BYX2 and related entries	0.999 ± 0.013	0.981 ± 0.044
UniProt Q99623	0.998 ± 0.026	1.01 ± 0.023
MRPL32 (UniProt Q9BYC8)	0.994 ± 0.01	1.01 ± 0.045
DIDO1 (UniProt Q9BTC0)	1.03 ± 0.037	1.03 ± 0.026
LLPH (UniProt Q9BRT6)	1.05 ± 0.084	1.07 ± 0.025
UniProt Q99767-2|Q99767	0.992 ± 0.031	0.9901 ± 0.0021
UniProt Q9BUA3	0.991 ± 0.019	0.981 ± 0.034
NUDCD1 (UniProt Q96RS6)	0.999 ± 0.012	0.963 ± 0.08
UniProt Q99829 and related entries	1.02 ± 0.036	0.992 ± 0.049
HINT2 (UniProt Q9BX68)	0.99 ± 0.021	1.02 ± 0.033
TRIM56 (UniProt Q9BRZ2)	0.979 ± 0.021	0.977 ± 0.036
COPS4 (UniProt Q9BT78)	1 ± 0.085	0.969 ± 0.069
CDC5L (UniProt Q99459)	1.01 ± 0.033	1.03 ± 0.02
SDF4 (UniProt Q9BRK5)	0.969 ± 0.016	0.968 ± 0.031
UniProt Q99549 and related entries	0.966 ± 0.025	1.01 ± 0.024
UniProt Q96QZ7 and related entries	1.001 ± 0.0029	0.998 ± 0.013
UniProt Q9BRX9	0.988 ± 0.011	0.9663 ± 0.0075
UniProt Q9BRT2 and related entries	1.1 ± 0.048	1.05 ± 0.034

Target	NP40-soluble protein abundance (concentration: 0.1mM)	NP40-soluble protein abundance (concentration: 0.5mM)
UniProt Q96RN5 and related entries	1.02 ± 0.062	0.985 ± 0.035
VAT1 (UniProt Q99536)	0.971 ± 0.026	0.999 ± 0.021
UniProt Q9BX63 and related entries	1.01 ± 0.016	0.988 ± 0.019
TMED9 (UniProt Q9BVK6)	0.998 ± 0.024	1.02 ± 0.037
OSBPL11 (UniProt Q9BXB4)	0.98 ± 0.041	0.998 ± 0.027
LYSMD1 (UniProt Q96S90)	0.981 ± 0.016	0.99 ± 0.046
UniProt Q9BQT9 and related entries	0.996 ± 0.018	1.01 ± 0.04
UniProt Q9BTX1 and related entries	0.997 ± 0.019	1.01 ± 0.049
CNPY3 (UniProt Q9BT09)	0.9844 ± 0.0082	0.9911 ± 0.0097
TRMT61B (UniProt Q9BVS5)	0.995 ± 0.018	1.01 ± 0.04
LIMD2 (UniProt Q9BT23)	1.09 ± 0.056	1.14 ± 0.029
UniProt Q9BRP4 and related entries	0.985 ± 0.031	0.961 ± 0.032
TBCB (UniProt Q99426)	1.01 ± 0.021	1.04 ± 0.063
SIKE1 (UniProt Q9BRV8)	1.019 ± 0.0026	1.02 ± 0.015
PHF20 (UniProt Q9BVI0)	1.03 ± 0.059	1.02 ± 0.015
UniProt Q9BU02 and related entries	1.03 ± 0.028	1.02 ± 0.058
UniProt Q9BW85	0.97 ± 0.043	1.02 ± 0.089
DSCC1 (UniProt Q9BVC3)	1.01 ± 0.016	0.986 ± 0.046
UniProt Q99538 and related entries	0.971 ± 0.066	1.01 ± 0.06
HIRIP3 (UniProt Q9BW71)	0.976 ± 0.043	1.03 ± 0.061
